Reference: patent US20200289554A1, “BIOORTHOGONAL COMPOUNDS COMPRISING A PROPARGYL GROUP FOR TREATING CANCER” (THE UNIVERSITY COURT OF THE UNIVERSITY OF EDINBURGH, priority 2016, published 2020)

Test system: U87G cells
Test: Prodrug safety dose-response cell viability (PrestoBlue), U87G
Format: cell-based
Conditions: Homo sapiens, 120 h, 5 days, no catalyst
Excerpt: Human lung adenocarcinoma A549 cells, human glioblastoma U87G cells and T98 cells were chosen as models for the Vorinostat and Panobinostat antiproliferative studies; A549 cells, human prostate carcinoma DU145 cells and T98 cells were chosen as models for Doxorubicin; human pancreatic carcinoma MiaPaCa2 cells were chosen as a model for Gemcitabine; human pancreatic adenocarcinoma BxPC3 and human colorectal carcinoma HCT116 cells were chosen as models for 5FU; human glioblastoma U87G cells were chosen as models for the SN-38 and Etoposide antiproliferative studies; and human ovarian carcinoma A2780 cells were chosen as model for Olaparib. These cell lines were selected as these are primary malignancies against which the parental drugs are currently prescribed.
The toxicities of each active agent and prodrugs were compared by performing dose-response studies. […] Cell viability was analysed by fluoresce intensity (λex=540 nm; λem=590 nm) after 60-90 min incubation with PrestoBlue™ Reagent (Life Technologies).

Q: How did the EC50 turn out when `O=C(CCCCCCC(=O)Nc1ccccc1)NO` [Vorinostat, reference compound] was run?
A: 11 µM
